# In PubChem BioAssay AID1487 (National Center for Advancing Translational Sciences (NCATS), 2009):
# Some of the results follow. These are further read-outs of the screen, such as a control signal, another cell line or another target. No call is given for them. Compounds called inactive in the main read-out are mostly missing here. Words in brackets tell the shape of the fitted curve; partial curves, single points and poor fits give uncertain potencies.
# Assay: qHTS Assay for Modulators of Lamin A Splicing
# Conditions: HeLa LMNA splicing GFP/RFP minigene ratio, 48 h
# Outline: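 S3 HeLa stable clones carrying a lamin A-EGFP splicing minigene plus DsRed2 were seeded at 600 cells/well in Opti-MEM with 2% FBS, pin-dosed and incubated 48 h at 37°C. Acumen cytometry (488 nm) gave the GFP/RFP total-intensity ratio.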
# [1] = measured here: RFP viability control channel
# [2] = measured here: GFP splicing reporter channel
SMILES,AC50 [1],AC50 [2]
CCCOC(=O)c1ccc(Oc2coc3c(CN(CC)CC)c(O)ccc3c2=O)cc1,"35.5 µM [rising, single point]",–
Cc1nn(-c2ccccc2)c(N2CCCC2)c1/C=N/NC(=O)c1cc(-c2cccnc2)nc2ccccc12,"35.5 µM [rising, single point]","31.6 µM [rising, single point]"
CCOC(=O)c1c(C)oc2ccc(OC(=O)COc3c(F)c(F)c(F)c(F)c3F)cc12,"0.0562 µM [falling, full curve, poor fit]",–
O=C(CCCn1nnc(-c2cccnc2)n1)c1ccc(F)cc1,"11.2 µM [rising, single point]",–
O=C(NCc1ccc(Cl)cc1)c1ccc2c(c1)NC(=O)C(CS(=O)(=O)Cc1ccc(F)cc1Cl)N2 (stereo not drawn),"20 µM [falling, partial curve, poor fit]",–
O=C(COCC(=O)Nc1cccc(C(F)(F)F)c1)Nc1cccc(C(F)(F)F)c1,–,"11.2 µM [rising, partial curve]"
Cc1cnc(NC(=O)CSc2nnc(CNc3ccc(F)cc3)n2CC2CCCO2)s1 (stereo not drawn),"31.6 µM [rising, single point]","35.5 µM [rising, single point]"
Cc1ccc(C(=O)CSc2ncnc3ccccc23)o1,"3.55 µM [rising, partial curve, poor fit]",–
COc1ccc(-n2c(CCc3ccccc3)nnc2SCC(=O)c2ccccc2)cc1,"28.2 µM [rising, partial curve, poor fit]","22.4 µM [rising, single point]"
Cc1ccccc1C(=O)N1CCN(c2ncnc3c2cnn3-c2ccccc2)CC1,"12.6 µM [rising, partial curve]","1.12 µM [rising, full curve, poor fit]"
COc1ccc(-c2nc3cnc(Nc4ccccc4)nc3n(Cc3cccs3)c2=O)cc1,"22.4 µM [falling, partial curve]","22.4 µM [falling, partial curve]"
CCc1nnc(NC(=O)CSc2nc(SC)ns2)s1,–,"35.5 µM [falling, partial curve, poor fit]"
OCCN1CCN(c2cc(-c3ccccc3)c3ccccc3n2)CC1,"0.562 µM [rising, full curve, poor fit]",–
O=C1CCSc2ccc(Cl)cc2N1Cc1ccc(Cl)cc1,"15.8 µM [rising, single point]","5.01 µM [rising, partial curve]"
CCN(CC)C1=C(Cl)C(=O)C(Cl)C12OCCO2 (stereo not drawn),–,"1 µM [rising, full curve, poor fit]"
Cc1cc(C(=O)CSc2nc3ccccc3[nH]2)c(C)n1Cc1ccco1,"2.82 µM [rising, full curve]","4.47 µM [rising, full curve]"
COc1ccc(C(C)=O)cc1CSc1nnc(C)s1,–,"35.5 µM [rising, single point]"
Cc1nc(N/N=C/c2ccccn2)sc1C,"14.1 µM [rising, partial curve]","7.08 µM [rising, partial curve, poor fit]"
CCCCCCCCCCCC(=O)NC(C(=O)OCC)C(O)c1cccc([N+](=O)[O-])c1 (stereo not drawn),"22.4 µM [falling, partial curve]","22.4 µM [falling, single point]"
CCCNS(=O)(=O)c1ccc(CCC(=O)Nc2ccc3c(c2)OCO3)cc1,"7.94 µM [rising, partial curve]","14.1 µM [rising, partial curve]"
O=C(NCCN1CCCCC1)c1c(O)c2ccccc2[nH]c1=O,"0.00316 µM [falling, full curve, poor fit]","0.398 µM [falling, full curve, poor fit]"
Cc1cc(Br)c(OCc2ccc(C(=O)N/N=C3\CC4CC=CC34)cc2)c(Br)c1 (stereo not drawn),"11.2 µM [rising, partial curve, poor fit]",–
CC(C)C[C@H](N)c1nnc(S(=O)(=O)Cc2ccc(F)cc2)o1,"35.5 µM [rising, single point]",–
CC(C)Sc1nc2c([nH]c3ccccc32)c(=O)n1C,"1.26 µM [falling, partial curve]",–
CCOc1ccc(S(=O)(=O)N2CCCCC2)c2ccccc12,"35.5 µM [rising, single point]","12.6 µM [rising, partial curve, poor fit]"
Cc1ccc(N(CC(=O)Nc2c(C)n(C)n(-c3ccccc3)c2=O)S(C)(=O)=O)cc1C,"35.5 µM [rising, single point]",–
Cc1cc(O)c(/C=N/Nc2ccc(F)cc2)c(=O)o1,"7.94 µM [rising, partial curve, poor fit]",–

SMILES,AC50 [1],AC50 [2]
c1ccc2nc(-c3ccc4c(c3)OCO4)ccc2c1,"1.12 µM [falling, full curve, poor fit]",–
Cc1cc(NC(=O)Cc2ccccc2)nc2c1c(=O)oc1ccccc12,"31.6 µM [rising, single point]","31.6 µM [rising, single point]"
COc1ccc(C(CC(=O)c2ccc(O)cc2)S(=O)(=O)c2ccc(C)cc2)cc1 (stereo not drawn),"35.5 µM [falling, single point]","15.8 µM [falling, partial curve]"
Brc1ccc2ncnc(Nc3ccc(N4CCOCC4)cc3)c2c1,–,"10 µM [rising, partial curve, poor fit]"
O=C(CC1C(=O)NCCN1Cc1cccc(Oc2ccccc2)c1)NCCc1cscn1 (stereo not drawn),"0.0316 µM [falling, full curve, poor fit]",–
CC(NCc1cccc(S(=O)(=O)N(C)C)c1)c1ccc(F)cc1 (stereo not drawn),–,"35.5 µM [rising, partial curve, poor fit]"
Cc1cc(C(=O)NNC(=S)NC(C)c2ccccc2)cs1 (stereo not drawn),"35.5 µM [rising, single point]","35.5 µM [rising, single point]"
O=C(NCc1ccc(F)cc1)c1cc2cccc3c2n1CCS3,"0.00891 µM [falling, full curve, poor fit]",–
COc1ccc(C2C(C(=O)Nc3cccc(C)n3)CCC(=O)N2c2ccc(OC)cc2)cc1 (stereo not drawn),"10 µM [falling, partial curve]","1.41 µM [falling, full curve]"
Cc1nc(-c2ccccc2)nc2[nH]c(=O)n(-c3ccccc3)c(=O)c12,"12.6 µM [rising, single point]",–
CC(C)NC(=S)NN=C1CCCCCCCCCCC1,"15.8 µM [rising, single point]","35.5 µM [rising, single point]"
COc1ccccc1N1CCN(Cc2nc(N)nc(Nc3ccc(C)cc3)n2)CC1,"25.1 µM [rising, single point]",–
CC(=O)Nc1ccc(/C=C(\C#N)C(=O)NC2CCCCC2)cc1,"0.708 µM [falling, full curve, poor fit]","0.891 µM [falling, full curve, poor fit]"
COc1ccc(-c2cc(=Nc3ccc(C)cc3)c3ccccc3o2)cc1,"0.126 µM [falling, full curve, poor fit]","0.447 µM [falling, full curve, poor fit]"
COc1ccccc1Cc1nc2ccccc2nc1SCC(=O)Nc1ccc2c(c1)OCO2,–,"0.794 µM [rising, full curve, poor fit]"
Cc1ccc(S(=O)(=O)N2CCCC2C(=O)Nc2nc3ccccc3s2)cc1 (stereo not drawn),"35.5 µM [rising, single point]","15.8 µM [rising, single point]"
CCN(CC)C(=O)CSc1ncnc2sc(-c3ccccc3)cc12,"25.1 µM [rising, single point]","22.4 µM [rising, partial curve, poor fit]"
CCOc1cc(/C=N/NC(=O)c2cc(-c3cccnc3)nc3ccccc23)ccc1O,"0.0158 µM [rising, full curve]",–
CC(=O)[C@]1(O)Cc2c(O)c3c(c(O)c2[C@@H](O[C@H]2C[C@H](N)[C@H](O)[C@H](C)O2)C1)C(=O)c1ccccc1C3=O,"0.316 µM [falling, full curve]","0.631 µM [falling, full curve]"
CCCOC(=O)c1ccc(Oc2c(-c3ccc(OC)cc3O)n[nH]c2C)cc1,"35.5 µM [falling, single point]","17.8 µM [falling, single point]"
O=C(/C=C/c1cccc([N+](=O)[O-])c1)NCCSCc1ccc(Cl)cc1,"11.2 µM [rising, partial curve, poor fit]",–
Cc1ccccc1OCCOc1ccccc1C=C(C#N)C#N,–,"12.6 µM [falling, partial curve]"
O=C(OCn1ncc(Br)c(Br)c1=O)c1ccc(F)cc1,"6.31 µM [falling, single point]",–
C=CCc1cccc(CNc2nc3ccccc3n2C(C)C)c1O,"12.6 µM [rising, partial curve]",–
Cc1ccc(N(C)C(=O)c2ccc3c(Cl)c4c(nc3c2)CCC4)cc1C,"17.8 µM [rising, partial curve]","14.1 µM [rising, single point]"
OCc1nc2ccccc2n1CC(O)Cn1ccc2ccccc21 (stereo not drawn),"11.2 µM [rising, partial curve]","12.6 µM [rising, partial curve]"

# Single records (already shown). Values in the order: AC50 [1] | AC50 [2]
# CC(=O)Nc1ccc(/C=C(\C#N)C(=O)NC2CCCCC2)cc1 reads 0.708 µM [falling, full curve, poor fit] | 0.891 µM [falling, full curve, poor fit]
# O=C(/C=C/c1cccc([N+](=O)[O-])c1)NCCSCc1ccc(Cl)cc1 reads 11.2 µM [rising, partial curve, poor fit] | –
